Laboratory results as given in paper PMC3561454.
No constants are given. Whether binding was seen depends on the method and setting. Binding seen in cells or lysates may run through a third protein. Sequences can lack the tags named with a protein.

The chains behind the UniProt entries cited, without tags or fusion partners.
UniProt P41240: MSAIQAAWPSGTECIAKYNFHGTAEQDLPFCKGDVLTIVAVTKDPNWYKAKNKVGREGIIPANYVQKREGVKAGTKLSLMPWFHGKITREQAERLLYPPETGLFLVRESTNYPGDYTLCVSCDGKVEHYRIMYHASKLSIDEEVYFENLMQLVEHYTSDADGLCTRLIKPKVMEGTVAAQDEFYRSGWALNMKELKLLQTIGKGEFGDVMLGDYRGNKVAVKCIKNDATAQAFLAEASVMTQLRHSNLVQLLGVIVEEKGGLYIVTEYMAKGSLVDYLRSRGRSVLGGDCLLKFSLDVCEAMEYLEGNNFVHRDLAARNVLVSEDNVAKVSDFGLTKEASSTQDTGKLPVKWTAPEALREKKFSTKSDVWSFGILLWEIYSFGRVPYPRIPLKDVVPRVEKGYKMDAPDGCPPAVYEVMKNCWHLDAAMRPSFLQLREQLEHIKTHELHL

Biological target: T1, GFP-p140Cap double mutant (p140 EPLY/FA, EGLY/FA) (human) (UniProt Q9C0H9)
T1 sequence: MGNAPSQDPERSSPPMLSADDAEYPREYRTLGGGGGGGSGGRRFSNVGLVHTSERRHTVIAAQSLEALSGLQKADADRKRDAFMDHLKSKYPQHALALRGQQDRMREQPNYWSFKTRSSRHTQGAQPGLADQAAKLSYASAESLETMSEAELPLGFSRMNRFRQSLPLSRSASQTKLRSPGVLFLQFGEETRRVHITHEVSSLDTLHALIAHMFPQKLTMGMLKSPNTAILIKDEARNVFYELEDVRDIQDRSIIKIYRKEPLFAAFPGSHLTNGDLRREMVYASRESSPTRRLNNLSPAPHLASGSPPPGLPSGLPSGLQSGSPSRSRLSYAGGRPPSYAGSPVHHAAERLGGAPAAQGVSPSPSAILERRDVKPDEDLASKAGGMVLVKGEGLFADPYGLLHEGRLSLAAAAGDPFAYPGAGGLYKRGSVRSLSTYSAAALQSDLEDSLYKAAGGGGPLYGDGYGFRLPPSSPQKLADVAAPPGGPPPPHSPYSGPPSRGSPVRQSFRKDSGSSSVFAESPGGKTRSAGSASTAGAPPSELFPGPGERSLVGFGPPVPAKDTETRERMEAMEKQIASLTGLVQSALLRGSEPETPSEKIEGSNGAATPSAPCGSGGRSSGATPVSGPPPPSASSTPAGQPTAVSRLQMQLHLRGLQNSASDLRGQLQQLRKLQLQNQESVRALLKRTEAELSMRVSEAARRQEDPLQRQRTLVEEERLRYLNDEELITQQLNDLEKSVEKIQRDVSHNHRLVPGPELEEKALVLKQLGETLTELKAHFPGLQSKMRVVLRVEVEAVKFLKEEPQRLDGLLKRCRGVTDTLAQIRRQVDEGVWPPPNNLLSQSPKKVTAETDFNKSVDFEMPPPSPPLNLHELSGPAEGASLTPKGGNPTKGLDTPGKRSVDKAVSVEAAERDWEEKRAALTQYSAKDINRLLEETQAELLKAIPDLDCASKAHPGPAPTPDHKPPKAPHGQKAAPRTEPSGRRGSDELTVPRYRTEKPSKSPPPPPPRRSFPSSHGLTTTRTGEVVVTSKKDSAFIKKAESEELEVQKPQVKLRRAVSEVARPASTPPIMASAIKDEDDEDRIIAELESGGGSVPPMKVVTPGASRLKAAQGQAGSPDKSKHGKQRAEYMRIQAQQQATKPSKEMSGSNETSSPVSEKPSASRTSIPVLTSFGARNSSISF
Experiment: co-IP; extracts of transfected HEK-293 cells (1% Triton X-100 lysis buffer) incubated overnight at 4°C with Dynabeads cross-linked to p140Cap monoclonal antibody; blot for Csk; cells treated with 100 micromolar pervanadate for 5 min, or starved overnight and treated with 20% FBS for 0, 5, 15 min

binding: no binding
Substance: C-terminal Src kinase (Csk), endogenous (from UniProt P41240 1-450) (enzyme)
